No constants are given. Whether binding was seen depends on the method and setting. Some results given as binding are weak or reduced against the parent protein; the word gives no strength.

Chains of the proteins cited; added tags and fusions are not shown. Residues count along the entry.
UniProt P69332: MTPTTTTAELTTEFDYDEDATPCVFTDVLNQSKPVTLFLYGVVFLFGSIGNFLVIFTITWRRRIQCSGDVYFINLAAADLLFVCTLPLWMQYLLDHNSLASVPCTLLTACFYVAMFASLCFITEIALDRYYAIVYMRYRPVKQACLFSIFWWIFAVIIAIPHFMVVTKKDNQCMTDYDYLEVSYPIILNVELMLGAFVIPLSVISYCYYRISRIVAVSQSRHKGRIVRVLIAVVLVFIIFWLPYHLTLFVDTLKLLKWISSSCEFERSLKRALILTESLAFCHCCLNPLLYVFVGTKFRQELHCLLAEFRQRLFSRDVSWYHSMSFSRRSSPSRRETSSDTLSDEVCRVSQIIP
UniProt P13500, residues 24-99: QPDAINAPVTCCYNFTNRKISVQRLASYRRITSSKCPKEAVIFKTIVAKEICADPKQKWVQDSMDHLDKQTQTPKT
UniProt P10147, residues 27-92: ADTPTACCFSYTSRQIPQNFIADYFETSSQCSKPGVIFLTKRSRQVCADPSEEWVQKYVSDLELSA

The target of one assay is HCMV-US28 (HCMV) (UniProt P69332). In words: competition of unlabeled CCL2 with 125I-CCL2 on HEK293T cells with HCMV-US28.
In assay [1] the target is T1, hCCR1 (human) (UniProt P32246).
T1 sequence (looked up): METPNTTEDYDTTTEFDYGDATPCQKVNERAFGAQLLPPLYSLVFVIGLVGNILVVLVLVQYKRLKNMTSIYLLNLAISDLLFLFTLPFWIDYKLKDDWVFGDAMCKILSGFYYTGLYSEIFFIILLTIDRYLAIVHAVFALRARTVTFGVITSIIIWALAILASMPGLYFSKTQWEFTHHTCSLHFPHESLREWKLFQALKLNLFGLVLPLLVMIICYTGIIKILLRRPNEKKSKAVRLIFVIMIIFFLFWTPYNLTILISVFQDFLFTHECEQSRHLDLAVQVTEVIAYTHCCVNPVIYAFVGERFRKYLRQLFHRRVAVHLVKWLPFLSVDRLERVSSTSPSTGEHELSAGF
In words: unlabelled CCL3 (100 nM) used to displace 125I-CCL5 from CCR1 on HEK293T cells.

Assay [2] deals with T1, hCCR1 (human). In words: competition of unlabeled CCL3 with 125I-CCL5 on HEK293T cells with hCCR1.

For the substance “recombinant human CCL2/MCP1 (from UniProt P13500 24-99) (ligand)”, the binding entry with HCMV-US28 (HCMV) is listed as “binds”.
On to “recombinant human CCL3/MIP1 alpha (from UniProt P10147 27-92) (ligand)”, for which the binding entry with hCCR1 (human) [1] and with hCCR1 (human) [2] was “binds” throughout.

The record behind these values is patent publication US20100092460A1.
